Values from PubChem BioAssay AID1259306 (Sanger Institute, 2017)
This is a random part of 794 deposited reagents. Of all reagents, 11 (1.4%) are marked active. 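Calls reflect knock-down alone; synergy scores play no part, so knock-downs synergising with a drug can be called no change.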 Viability is capped at 1. Not all columns of the deposit are shown. Not given: the amount of reagent, the time to read-out.

Purpose: 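Find kinases whose loss reduces colorectal cancer cell viability or aids targeted drugs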 (primary screen)
Cell system: human SNU-C5 colorectal cancer cells
Reagents: siRNA pool against human genes
Challenge: DMSO vehicle alone, or one anchor drug: BYL719 at 1 µM, cetuximab at 5 µg/ml or trametinib at 10 nM, given 24 h into the assay
Detection: 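Replicate-averaged viability against non-targeting pool control, given as fraction and robust z-score; separate synergy scores for BYL719, cetuximab and trametinib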
Reading the numbers: robust z-score, knock-down alone and viability, knock-down alone: higher = more viable cells
Active means: 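Called essential when the robust z-score for knock-down alone is below -3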
Meaning of the calls: active = essential (knock-down alone); inactive = no change alone

{"gene symbol": "WNK2", "robust z-score, knock-down alone": 0.989, "viability, knock-down alone": 1, "activity call": "inactive"}
{"gene symbol": "CASK", "robust z-score, knock-down alone": -0.565, "viability, knock-down alone": 0.786, "activity call": "inactive"}
{"gene symbol": "CAMK1", "robust z-score, knock-down alone": -0.0854, "viability, knock-down alone": 0.852, "activity call": "inactive"}
{"gene symbol": "RIOK2", "robust z-score, knock-down alone": -1.88, "viability, knock-down alone": 0.604, "activity call": "inactive"}
{"gene symbol": "CDKN2D", "robust z-score, knock-down alone": -0.533, "viability, knock-down alone": 0.79, "activity call": "inactive"}
{"gene symbol": "TEC", "robust z-score, knock-down alone": 0.331, "viability, knock-down alone": 0.909, "activity call": "inactive"}
{"gene symbol": "RPS6KA5", "robust z-score, knock-down alone": 0.7, "viability, knock-down alone": 0.96, "activity call": "inactive"}
{"gene symbol": "MAP2K4", "robust z-score, knock-down alone": -0.71, "viability, knock-down alone": 0.766, "activity call": "inactive"}
{"gene symbol": "ACVR2B", "robust z-score, knock-down alone": -0.728, "viability, knock-down alone": 0.763, "activity call": "inactive"}
{"gene symbol": "CSNK1G3", "robust z-score, knock-down alone": -0.303, "viability, knock-down alone": 0.822, "activity call": "inactive"}
{"gene symbol": "MAP2K7", "robust z-score, knock-down alone": 0.248, "viability, knock-down alone": 0.898, "activity call": "inactive"}
{"gene symbol": "PRKAA2", "robust z-score, knock-down alone": -1.64, "viability, knock-down alone": 0.638, "activity call": "inactive"}
{"gene symbol": "EPHA5", "robust z-score, knock-down alone": 0.989, "viability, knock-down alone": 1, "activity call": "inactive"}
{"gene symbol": "CAMK2B", "robust z-score, knock-down alone": 0.843, "viability, knock-down alone": 0.98, "activity call": "inactive"}
{"gene symbol": "BRD3", "robust z-score, knock-down alone": 0.989, "viability, knock-down alone": 1, "activity call": "inactive"}
{"gene symbol": "TAF1", "robust z-score, knock-down alone": -0.149, "viability, knock-down alone": 0.843, "activity call": "inactive"}
{"gene symbol": "SGK1", "robust z-score, knock-down alone": 0.989, "viability, knock-down alone": 1, "activity call": "inactive"}
{"gene symbol": "WHR1", "robust z-score, knock-down alone": 0.637, "viability, knock-down alone": 0.951, "activity call": "inactive"}
{"gene symbol": "IGF1R", "robust z-score, knock-down alone": -0.36, "viability, knock-down alone": 0.814, "activity call": "inactive"}
{"gene symbol": "PBK", "robust z-score, knock-down alone": 0.643, "viability, knock-down alone": 0.952, "activity call": "inactive"}
{"gene symbol": "PRKCG", "robust z-score, knock-down alone": 0.326, "viability, knock-down alone": 0.909, "activity call": "inactive"}
{"gene symbol": "BPTF", "robust z-score, knock-down alone": 0.281, "viability, knock-down alone": 0.902, "activity call": "inactive"}
{"gene symbol": "PRKY", "robust z-score, knock-down alone": -1.05, "viability, knock-down alone": 0.719, "activity call": "inactive"}
{"gene symbol": "BMX", "robust z-score, knock-down alone": -0.218, "viability, knock-down alone": 0.834, "activity call": "inactive"}
{"gene symbol": "CDC42BPG", "robust z-score, knock-down alone": 0.897, "viability, knock-down alone": 0.987, "activity call": "inactive"}
{"gene symbol": "PDK3", "robust z-score, knock-down alone": 0.0797, "viability, knock-down alone": 0.875, "activity call": "inactive"}
{"gene symbol": "DGKB", "robust z-score, knock-down alone": -2.2, "viability, knock-down alone": 0.561, "activity call": "inactive"}
{"gene symbol": "RTN4", "robust z-score, knock-down alone": -0.57, "viability, knock-down alone": 0.785, "activity call": "inactive"}

A run of entries of the results above:
{"gene symbol": "PRKCG", "robust z-score, knock-down alone": 0.326, "viability, knock-down alone": 0.909, "activity call": "inactive"}
{"gene symbol": "BPTF", "robust z-score, knock-down alone": 0.281, "viability, knock-down alone": 0.902, "activity call": "inactive"}
{"gene symbol": "PRKY", "robust z-score, knock-down alone": -1.05, "viability, knock-down alone": 0.719, "activity call": "inactive"}
